Library screening results

By UniProt entry, the sequences of proteins in these tests, tags left out.
UniProt E9BF75, entry or part of it: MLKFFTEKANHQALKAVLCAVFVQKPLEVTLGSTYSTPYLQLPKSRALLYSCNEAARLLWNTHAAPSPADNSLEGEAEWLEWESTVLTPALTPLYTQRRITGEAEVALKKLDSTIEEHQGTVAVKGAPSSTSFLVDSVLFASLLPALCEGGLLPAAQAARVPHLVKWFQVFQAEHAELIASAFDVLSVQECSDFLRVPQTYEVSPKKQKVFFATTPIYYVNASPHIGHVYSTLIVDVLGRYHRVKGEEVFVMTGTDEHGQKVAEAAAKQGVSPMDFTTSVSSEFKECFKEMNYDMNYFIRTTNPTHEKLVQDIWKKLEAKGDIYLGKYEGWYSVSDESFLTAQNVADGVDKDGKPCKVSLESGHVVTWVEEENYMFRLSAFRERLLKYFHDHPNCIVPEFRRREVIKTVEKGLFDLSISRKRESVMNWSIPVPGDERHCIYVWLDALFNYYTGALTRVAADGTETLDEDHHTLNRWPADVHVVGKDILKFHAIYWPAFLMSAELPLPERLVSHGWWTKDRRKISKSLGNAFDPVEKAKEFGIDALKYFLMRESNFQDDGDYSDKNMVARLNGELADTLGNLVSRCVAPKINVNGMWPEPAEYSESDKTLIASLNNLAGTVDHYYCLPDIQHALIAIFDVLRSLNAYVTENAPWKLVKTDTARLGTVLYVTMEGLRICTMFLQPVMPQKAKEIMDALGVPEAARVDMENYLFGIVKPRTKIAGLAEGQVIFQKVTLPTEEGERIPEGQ

Data taken from ChEMBL document CHEMBL3988442, “University of Dundee, Small-Polar-MMV Screening Library” (2021).

All values are in %.
The controls that fix the scale are not given in the record; negative values are as filed.
This is an unselected part of the compounds tested.

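Methionyl-tRNA synthetase (putative), Leishmania donovani (UniProt E9BF75). Primary screen of methionyl-tRNA synthetase; the read-out is not stated. The test concentration is not given. The values are filed as inhibition. Of about 68,000 compounds tested this way, about 24 (0.035%) reached 50% or more in at least one test.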

SMILES | inhibition
CC(C)C(=O)N1CCC[C@]2(C(=O)N(C)C)CN(c3ccccn3)C[C@@H]2C1 | 2.466
CC(C)c1nc(CN(C)C(=O)CNS(=O)(=O)c2cccs2)cs1 | 13.77
Cc1ccn(CCC(=O)N2CCCC(Cc3cccnc3)C2)n1 (stereo not drawn) | 7.765
O=C(c1ccco1)N1CCCC1C1CCN(Cc2ccccc2)CC1 (stereo not drawn) | 21.13
CN(C)CCNC(=O)c1ccc(OC2CCN(S(C)(=O)=O)CC2)c(Cl)c1 | 15.99
CC(NC(=O)c1cccnc1N(C)C)c1ccccc1Cl (stereo not drawn) | 10.31
COCc1cccc(S(=O)(=O)NCc2cnn(C)c2C)c1 | 8.271
O=C1CCCN1Cc1nnc2n1CCN(Cc1ccco1)CC2 | 15.85
CCc1nc(C2CCCN(C(=O)c3cccc4c3ccn4C)C2)no1 (stereo not drawn) | 10.48
c1cnnc(N2CCCC2CNCc2cnc(N3CCCC3)nc2)c1 (stereo not drawn) | 10.42
C[C@@H]1CN(C2(C(=O)N3CCCCCC3)Cc3ccccc3C2)C[C@H](C)O1 | 13.27
OCC1(Cc2ccc(Cl)cc2)CCN(Cc2cccnc2)CC1 | -3.78
CCCn1cc(CN2CCCC2c2cccc(-n3ccnc3)n2)cn1 (stereo not drawn) | 23.15
Cc1n[nH]c2ncc(CNC3CCN(Cc4ccccn4)CC3)cc12 | 12.63
Cc1nnc2ccc(OCCNS(=O)(=O)c3cccs3)nn12 | 15.49
Cc1ccc2c(n1)N(C)CCN(C(=O)C1CC1)C2 | 12.97
Cc1cc(CN(CCO)c2ccc(Br)cc2)on1 | 1.863
O=C(Nc1cc2c(cc1Br)OCCO2)NC1CCS(=O)(=O)C1 (stereo not drawn) | -0.7246
COCC1CN(C(=O)COc2ccccc2)Cc2cn(C)nc21 (stereo not drawn) | 11.76
Cc1n[nH]c(SCC(=O)N[C@@H](C)C(N)=O)n1 | 6.944
CN(Cc1nccn1CC(F)(F)F)C(=O)c1ccc2c(c1)OCO2 | 6.402
CN(C)CCN1CCOCC2(CCCN(C(=O)c3cccn3C)C2)C1 (stereo not drawn) | 17.78
CCCOc1cccc(-c2nc3c([nH]2)CCNC3)c1 | 5
Cc1cnc(-c2nc(NC3CCCC3)ncc2-c2onc(C)c2C)cn1 | 9.677
CC1CN(C(=O)c2cscn2)c2ccccc2S1 (stereo not drawn) | 6.906
CC(=O)N(C)CC(=O)Nc1cc(C(F)(F)F)c[nH]c1=O | 16.76
CCSCc1ccnc(NC(=O)C2CCOC2)c1 (stereo not drawn) | 5.455
Cc1cccc(-c2nc(C)nn2CC(=O)NCC(C)C)c1 | 16.26
CCn1nc(C)c2c1cnn2CCNS(=O)(=O)c1ccccc1 | 12.75
Cc1cnc(N2C[C@@H]3[C@@H](C(=O)NC(C)C)CCS(=O)(=O)[C@@H]3C2)nc1 | -2.055
CSc1ncc(Cl)c(C(=O)NC(Cc2ccccc2)C(=O)O)n1 (stereo not drawn) | -0.2703
CCN(CCC1CCN(C(=O)NCc2nncn2CC)CC1)CC1CC1 | 4.871
Cc1cc(N2CCN(C(=O)c3cc(Cl)c[nH]3)CC2)nc(C)n1 | 13.48
CCCc1nnc(N2CCC3(CC2)CC(=O)NC(=O)C3)o1 | 10
O=C(NC[C@H]1OC[C@@H](NCc2cccs2)[C@@H]1O)N1CCOCC1 | -3.729
CC(C)(N)c1nc(C(F)F)cc(=O)[nH]1 | 5.783
Cc1ccc(-c2nnc(SCC(=O)O)n2-c2ccc(C)cc2)cc1 | 18.47
NC(=O)Nc1cccc(F)c1C(=O)NC1CCCC1 | 11.42
CCNC(=O)CCC(=O)Nc1nc(C)c(Cc2ccc(F)cc2)s1 | 4.897
COc1ccccc1[C@@H]1CN(C(=O)Cc2csc(C)n2)C[C@H]1C(=O)O | 11.61
Cc1cnc2c(S(=O)(=O)NCC3CCS(=O)(=O)C3)cccc2c1 (stereo not drawn) | 3.937
FC(F)(F)c1cccc(C2(CNCc3ccncc3)CCOCC2)c1 | 11.43
COc1cccc2c1N(Cc1nc3c(cnn3C)c(=O)[nH]1)CCC2 | 8.362
O=c1[nH]cc(N2CCOCC2)c(=O)[nH]1 | 7.937
Cc1csc(CN2C[C@@H]3COC[C@]3(C(=O)NCc3ccco3)C2)n1 | 0.5495
CNC(=O)c1ccc(CN(C)C(=O)Nc2nnc(C(C)C)s2)cc1 | 16.91
Cn1cc(NC(=O)N2CCC(NS(C)(=O)=O)CC2)ccc1=O | 2.454
CN(C)S(=O)(=O)c1csc(C(=O)N2CCC(C(N)=O)CC2)c1 | -5.385
Cc1ccc2cc(CN(C)Cc3ccccn3)c(=O)[nH]c2c1 | 3.015
Cc1ccc2nc(CN3CCCCC3CCn3cccn3)cn2c1 (stereo not drawn) | 13.62
COCC(=O)Nc1cnc(N2CCN(c3ccccc3)CC2)nc1 | 11.18
c1ccc(CN2Cc3[nH]nc(COCC4CC4)c3C2)nc1 | 9.343
CC(C)n1[nH]c(=O)c2c1NC(=O)CC2c1ccc(S(C)(=O)=O)cc1 (stereo not drawn) | 17.43
CCOc1c(F)cccc1C(=O)N(C)CCn1cccn1 | 11.21
Cc1nc(CN2CCO[C@@H]3CN(C(=O)NC(C)C)CC[C@@H]3C2)cs1 | 15.02
CCOCC(O)CN1CCN(C(=O)c2cc(F)ccc2C)CC1 (stereo not drawn) | 12.55
Fc1cccc(CN2CCC3(CCCN3c3ncccn3)CC2)c1 | 8.197
COc1cccc(CC(=O)N2CC[C@@H](OC)[C@@H]2Cc2cccnc2)c1 | 10.99
CC(C)Cc1noc(CN2CCOCC2)n1 | 8.163
O=C(NCCc1cccs1)N1CCC[C@H]1CO | 8.099
Cc1nc(C2CCCN2C(=O)CCCn2cncn2)no1 (stereo not drawn) | 6.25
COc1cccc2c3c(c(=O)[nH]c12)CCO3 | -1.579
COCCN1CCCC2(CCN(c3nc(C)nc4c3CCC4)C2)C1=O (stereo not drawn) | 9.409
O=C1CN(C(=O)c2cccc(C(F)(F)F)c2)CC(O)CN1CC1CC1 (stereo not drawn) | 5.205

For reference, 3 entries once more:

SMILES,inhibition
Cc1cc(N2CCN(C(=O)c3cc(Cl)c[nH]3)CC2)nc(C)n1,13.48
CC(C)C(=O)N1CCC[C@]2(C(=O)N(C)C)CN(c3ccccn3)C[C@@H]2C1,2.466
COCCN1CCCC2(CCN(c3nc(C)nc4c3CCC4)C2)C1=O (stereo not drawn),9.409